# Source: PubChem BioAssay AID1224828 (NIAID, 2016)
# Aim: 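Knock-downs that increase or decrease LPS-induced p65 nuclear translocation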 (primary screen)
# Cell system: mouse RAW264.7 G9 macrophage reporter cells (GFP-p65, Tnf promoter-mCherry)
# Knock-down reagent: siRNA pool against mouse genes, 100 nM
# Timing: 2 days siRNA transfection, then 40 min LPS before fixation
# Treatment: LPS (Salmonella minnesota R595) at 10 ng/ml
# Detection: 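Microscopy ratio of nuclear to perinuclear-ring GFP-p65 signal, scaled to the plate median; gene score is the average of two replicate robust z-scores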
# Direction: p65 translocation robust z-score: higher = more nuclear NF-kappaB p65 after LPS than the plate median; nuclear/cytoplasmic p65 ratio: higher = more nuclear NF-kappaB p65
# Hit rule: 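Called active when z exceeds 3.3 or falls under -1.56 (median of Tlr4 controls), giving activity score of at least 50; no calls for control wells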
# Meaning of the calls: active = hit (p65 shift raised or lowered); inactive = no clear change
# The whole screen tested about 17,000 reagents; this is an unselected part. Of all reagents, 762 (4.5%) got an active call. 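Active calls include both raised and lowered p65 entry, mostly lowered; wells with fewer than 50 cells lack a z-score.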 Raw values vary from plate to plate and are shown uncorrected. A number with no mark means an inactive call.
p65 translocation robust z-score,"nuclear/cytoplasmic p65 ratio, rep 1","nuclear/cytoplasmic p65 ratio, rep 2",low cell count flag,gene knocked down
-0.7,1.42,1.25,enough cells to score,Cpz (GeneID 242939)
0.35,1.55,1.38,enough cells to score,Elavl2 (GeneID 15569)
-2.12 (active),1.18,1.32,enough cells to score,Asph (GeneID 65973)
-0.39,1.6,1.51,enough cells to score,Asb2 (GeneID 65256)
,1.5,1.66,fewer than 50 cells per well; well left out of scoring,2610524H06Rik (GeneID 330173)
-0.06,1.16,1.3,enough cells to score,Meaf6 (GeneID 70088)
0.58,1.58,1.69,enough cells to score,Tas2r119 (GeneID 57254)
-0.05,1.5,1.5,enough cells to score,Mc5r (GeneID 17203)
-0.68,1.47,1.37,enough cells to score,Rorb (GeneID 225998)
0.33,1.69,1.69,enough cells to score,Asic3 (GeneID 171209)
,1.13,1.05,fewer than 50 cells per well; well left out of scoring,Or52i2 (GeneID 258749)
,1.29,1.36,fewer than 50 cells per well; well left out of scoring,Exosc8 (GeneID 69639)
,1.33,1,fewer than 50 cells per well; well left out of scoring,Snhg16 (GeneID 66293)
0.57,1.57,1.71,enough cells to score,Ces1f (GeneID 234564)
-1.19,1.54,1.47,enough cells to score,Mgrn1 (GeneID 17237)
-1.53,1.11,1.26,enough cells to score,Chmp7 (GeneID 105513)
-0.74,1.32,1.33,enough cells to score,Cxcl14 (GeneID 57266)
0.24,1.63,1.82,enough cells to score,Chst4 (GeneID 26887)
-1.21,1.27,1.25,enough cells to score,Cd14 (GeneID 12475)
-0.2,1.45,1.2,enough cells to score,Vmn1r226 (GeneID 171225)
-0.52,1.5,1.57,enough cells to score,Dhrs11 (GeneID 192970)
0.92,1.71,1.96,enough cells to score,Cmtm2b (GeneID 75502)
-0.1,1.44,1.5,enough cells to score,Zfp871 (GeneID 208292)
1.85,1.72,1.74,enough cells to score,Fndc9 (GeneID 320116)
1.18,1.5,1.62,enough cells to score,Herc2 (GeneID 15204)
-0.36,1.27,1.55,enough cells to score,Tigd5 (GeneID 105734)
-0.04,1.58,1.64,enough cells to score,Dynll2 (GeneID 68097)
,1.2,1.36,fewer than 50 cells per well; well left out of scoring,Uba6 (GeneID 231380)
,1.55,1.18,fewer than 50 cells per well; well left out of scoring,Grid1 (GeneID 14803)
-1.29,1.61,1.28,enough cells to score,Lrrc4 (GeneID 192198)

Ordered by “nuclear/cytoplasmic p65 ratio, rep 1” (descending): some entries from above
p65 translocation robust z-score,"nuclear/cytoplasmic p65 ratio, rep 1","nuclear/cytoplasmic p65 ratio, rep 2",low cell count flag,gene knocked down
0.33,1.69,1.69,enough cells to score,Asic3 (GeneID 171209)
0.58,1.58,1.69,enough cells to score,Tas2r119 (GeneID 57254)
0.57,1.57,1.71,enough cells to score,Ces1f (GeneID 234564)
-0.05,1.5,1.5,enough cells to score,Mc5r (GeneID 17203)
-0.68,1.47,1.37,enough cells to score,Rorb (GeneID 225998)
,1.33,1,fewer than 50 cells per well; well left out of scoring,Snhg16 (GeneID 66293)
,1.29,1.36,fewer than 50 cells per well; well left out of scoring,Exosc8 (GeneID 69639)
,1.13,1.05,fewer than 50 cells per well; well left out of scoring,Or52i2 (GeneID 258749)

Additional results follow.
p65 translocation robust z-score,"nuclear/cytoplasmic p65 ratio, rep 1","nuclear/cytoplasmic p65 ratio, rep 2",low cell count flag,gene knocked down
1.38,1.25,1.75,enough cells to score,Lysmd2 (GeneID 70082)
0.23,1.61,1.51,enough cells to score,Ncs1 (GeneID 14299)
-0.46,1.51,1.59,enough cells to score,Adamts20 (GeneID 223838)
-1.96 (active),1.29,1.11,enough cells to score,Fbxl12 (GeneID 30843)
-0.85,1.59,1.4,enough cells to score,Nudt7 (GeneID 67528)
-0.23,1.51,1.65,enough cells to score,Aamp (GeneID 227290)
0.46,1.7,1.68,enough cells to score,Adam22 (GeneID 11496)
-0.01,1.56,1.29,enough cells to score,Cdh3 (GeneID 12560)
1.45,1.88,1.79,enough cells to score,Or1e16 (GeneID 258923)
-0.75,1.5,1.34,enough cells to score,Wnk4 (GeneID 69847)
,1.5,1.18,fewer than 50 cells per well; well left out of scoring,Spry4 (GeneID 24066)
-0.38,1.37,1.36,enough cells to score,Bbs9 (GeneID 319845)
-2.61 (active),1.1,1.26,enough cells to score,Ust (GeneID 338362)
-0.48,1.34,1.16,enough cells to score,Vmn1r16 (GeneID 171202)
,1.32,1.45,fewer than 50 cells per well; well left out of scoring,Glrx5 (GeneID 73046)
-1.3,1.2,1.35,enough cells to score,A730036I17Rik (GeneID 329513)
0.55,1.39,1.31,enough cells to score,Zfp397 (GeneID 69256)
-0.64,1.41,1.42,enough cells to score,Crlf2 (GeneID 57914)
0.34,1.65,1.68,enough cells to score,Nod1 (GeneID 107607)
1.98,1.81,1.57,enough cells to score,Klc1 (GeneID 16593)
0.12,1.42,1.41,enough cells to score,Galns (GeneID 50917)
1.48,1.51,1.46,enough cells to score,Trpc4ap (GeneID 56407)
0.3,1.75,1.4,enough cells to score,Jak1 (GeneID 16451)
-0.25,1.46,1.34,enough cells to score,Nrgn (GeneID 64011)
1.1,1.85,1.67,enough cells to score,Has1 (GeneID 15116)
,1.3,1.43,fewer than 50 cells per well; well left out of scoring,Bcl2a1a (GeneID 12044)
-1.36,1.22,1.27,enough cells to score,Pax4 (GeneID 18506)
-0.94,1.27,1.15,enough cells to score,Sp100 (GeneID 20684)
0.4,1.47,1.37,enough cells to score,Zbp1 (GeneID 58203)
